Laboratory results published in patent US20200222474A1, “COMPOSITIONS AND METHODS FOR INCREASING PHYTOCHEMICAL BIOAVAILABLITY AND BIOACTIVITY” (North Carolina State University, priority 2017, published 2020).
For part of these data: For at least one compound, name, drawing or mass did not settle the structure. Some entries share one result that the patent states for a list of compounds. Some compounds share one range, which may span the group rather than tell each member.

What was measured:
L. acidophilus NCFM [1] = assay: RNA-seq transcriptional analysis of L. acidophilus NCFM growing on plant glycosides; format: cell-based, Lactobacillus acidophilus; conditions: gene LBA1469 (UDP-glucose 4-epimerase)
L. acidophilus NCFM [2] = assay: Growth of L. acidophilus NCFM on plant glycosides as single carbon source (OD600); format: cell-based, Lactobacillus acidophilus; conditions: 200 μL cultures in 96-well plates; range over the named glycosides
Procedure: For initial growth and gene expression studies, L. acidophilus NCFM was propagated three times in semi-defined medium (SDM) supplemented with either 1% or 0,5% (w/v) of the plant glycoside or carbohydrate (Table 1). For the RNA-seq analysis, cells were harvested by centrifugation (3,220×10 min, 25° C.) in the mid-exponential phase (OD600=0.6-0.8) and stored at −80° C. for subsequent RNA isolation. For the mass spectrometry metabolite analyses, 200 μt samples were taken at 0, 3, 6, 9, 12, and 24 hours of growth; cells were removed by centrifugation; and supernatants were stored at −80° C. for further analysis.
Phenotypic growth assays were performed using 1% (v/v) overnight cultures of L. acidophilus strains (Table 2) and other Lactobacillus species (Table 3) grown on SDM supplemented with 1% (w/v) glucose to inoculate 200 μL of SDM supplemented with 1% (w/v) of the examined carbohydrate (0.5% in the case of esculin) in 96-well microplate wells (Corning Costar, Corning, N.Y., USA) in duplicate or triplicate wells, respectively. The microplates were sealed with clear adhesive film, incubated at 37° C. in a Fluostar Optima microplate reader (BMG Labtech, Cary, N.C., USA), and the cell optical density (OD600) was monitored for 30 hours.
The growth of L. acidophilus NCFM was evaluated on twelve chemically diverse, nutritionally relevant and/or therapeutically active PGs 1; Table 1). […]

Structure (SMILES) | Transcripts per million (rpm) (L. acidophilus NCFM [1]) | maximum OD600 (L. acidophilus NCFM [2])
OC[C@H]1O[C@@H](O[C@H]2[C@H](O)[C@@H](O)[C@@H](O)O[C@@H]2CO)[C@H](O)[C@@H](O)[C@H]1O [Lac] | /812.3 rpm | –
N#C[C@H](O[C@@H]1O[C@H](CO[C@@H]2O[C@H](CO)[C@@H](O)[C@H](O)[C@H]2O)[C@@H](O)[C@H](O)[C@H]1O)c1ccccc1 [Amygdalin] | – | 0.3-1.3
O=c1ccc2cc(O[C@@H]3O[C@H](CO)[C@@H](O)[C@H](O)[C@H]3O)c(O)cc2o1 [Esculin] | – | 0.3-1.3
